According to patent US20080222745A1, “Colcemid-Treatment of Oocytes to enhance Nuclear Transfer Cloning” (Utah State University, priority 2007, published 2008):
Like-named read-outs stand apart in the source and are kept apart here.

Assays:
bovine NT embryos = conditions: 0.2 and 0.4 μg/ml; 2 to 6 hr; oocytes matured 16-17 hr
MAP kinase (ERK2) = conditions: 0.4 μg/ml colcemid after 15 hr IVM; 18, 20, 22 hours; p<0.05
[1] = system: maturation promoting factor (MPF)

CN[C@H]1CCc2cc(OC)c(OC)c(OC)c2-c2ccc(OC)c(=O)cc21 [colcemid, N-deacetyl-N-methylcolchicine]
effect of colcemid concentration and treatment time on NT embryo development to blastocyst and hatching blastocyst stages (bovine NT embryos): did not affect
relative activity of MAP kinase, colcemid treated vs control oocytes (MAP kinase (ERK2)): significantly different
relative mean MPF activity vs oocytes matured without colcemid ([1]; 0.4 μg/ml colcemid after 15 hr IVM, p<0.0001): significantly higher
MPF activity vs every other time and treatment combination ([1]; colcemid treated oocytes matured for 22 hrs): significantly higher
No. of Oocytes Responding to electroporation with IP3 (bovine oocytes; 18 hr maturation, 3 hr colcemid (0.4 μg/ml), 9 oocytes tested): 7
No. of Oocytes Responding to electroporation with IP3 (bovine oocytes; 20 hr maturation, 5 hr colcemid (0.4 μg/ml), 9 oocytes tested): 9
No. of Oocytes Responding to electroporation with IP3 (bovine oocytes; 22 hr maturation, 7 hr colcemid (0.4 μg/ml), 10 oocytes tested): 10
